The text below walks through data of PubChem BioAssay AID720706 (Broad Institute, 2013).

Molecules are shown by their SMILES. The list shows a part of the results. Some salts and complexes are drawn in separate pieces, as the source files them; their charges need not balance.

The experiment can be described thus: reduced GFP signal of wild-type E. coli, primary screen, bacterial rRNA inhibitor project, GFP/RFP fluorescence, OD600, single point (AID 720706). As to conditions: E. coli WT GFP vs humanized-ribosome RFP mutants, 24 h; OD600 change: measured here: OD600 growth, DMSO median 0, no signal -100; RFP signal change: measured here: RFP humanized mutant strains, DMSO median 0, no signal -100, concentration not given here.
As to `O=C(OC1CN2CCC1CC2)c1ccccc1` (centres undefined), the OD600 change was 9.8% and the RFP signal change was -2.21%.

In the case of `Cc1c([N+](=O)[O-])cc([N+](=O)[O-])c(Br)c1[N+](=O)[O-]`, the OD600 change was 6.71% and the RFP signal change was -1.07%.

Consider `Cc1ccc(OP(=O)(Nc2ccccn2)Oc2ccc(C)cc2)cc1`, for which the OD600 change was -24.9% and the RFP signal change is -4.62%.

On to `CC(NC(=O)COC(=O)C(O)(c1ccccc1)c1ccccc1)c1ccccc1` (centres undefined), for which the OD600 change was -29.1% and the RFP signal change turned out to be 2.54%.

For `Cc1ccccc1OP(=O)(Nc1ccccn1)Oc1ccccc1C`, the OD600 change is -49.8% and the RFP signal change came out at 2.61%.

For `O=c1c2cc([N+](=O)[O-])ccc2[nH]c2c([N+](=O)[O-])cc([N+](=O)[O-])cc12`, the OD600 change was -2.38% and the RFP signal change turned out to be 4.06%.

For `CCCCCOc1ccc(NP(C)(=O)Oc2ccc(Cl)cc2Cl)cc1` (centres undefined), the OD600 change was determined as 8.59% and the RFP signal change was -0.36%.

For `O=[N+]([O-])c1cc([N+](=O)[O-])c(OC2CCCCC2O)c([N+](=O)[O-])c1` (centres undefined), the OD600 change is 3.57% and the RFP signal change is -7.19%.

With `CN(C)C(=O)Oc1noc2ccccc12`, the OD600 change came out at 9.34% and the RFP signal change stood at 2.1%.

As for `c1ccc(-c2nn[nH]n2)c(-c2nn[nH]n2)c1`, the OD600 change is 7.92% and the RFP signal change came to 0.699%.

For the compound `Cc1ccc(NP(=O)(Oc2cccc(C)c2)Oc2cccc(C)c2)nc1`, the OD600 change is 4.65% and the RFP signal change stood at 0.22%.

Regarding `CCNC(=S)/N=C(\N)N[N+](=O)[O-]`, the OD600 change was 5.91% and the RFP signal change is -2.45%.

For the compound `O=C(NC1CCS(=O)(=O)C1)NP(=S)(Oc1ccccc1)Oc1ccccc1` (centres undefined), the OD600 change is -19.4% and the RFP signal change was -7.58%.

Regarding `COc1ccc(OP(C)(=O)Nc2ccc(SC(F)(F)F)cc2)cc1` (centres undefined), the OD600 change was found to be 0.24% and the RFP signal change was 1.87%.

Regarding `O=P1(N(CCCl)CCCl)OCCC2CCCCN21` (centres undefined), the OD600 change worked out at 6.57% and the RFP signal change was 0.91%.

`Cc1ccccc1CN(C)C(=O)COC(=O)C(O)(c1ccccc1)c1ccccc1`: the OD600 change was -58% and the RFP signal change was -9.63%.

As to `O=C(OCCN1CCN(CCOCc2ccccc2)CC1)C(O)(c1ccccc1)c1ccccc1`, the OD600 change was -5.62% and the RFP signal change worked out at 1.73%.

As to `C[C@H]1OP(=O)(Oc2ccccc2)C[C@@H]2O[C@@H]21` (some centres undefined), the OD600 change stood at 19.1% and the RFP signal change was -1.75%.

In the case of `C[C@@H]1C=CCP(=O)(Oc2ccccc2)O1` (some centres undefined), the OD600 change was -14.7% and the RFP signal change was 0.885%.

As for `CC(=O)c1ccc(N2CC2c2ccncc2)cc1` (centres undefined), the OD600 change was found to be 14.6% and the RFP signal change was 0.19%.

Turning to `N#C/C(=C\c1ccc(N(CCBr)CCBr)cc1)C(N)=O`, the OD600 change came out at 3.2% and the RFP signal change was -2.05%.

`O=C(OC1CN2CCC1CC2)c1ccc([N+](=O)[O-])cc1` (centres undefined): the OD600 change was -2.77% and the RFP signal change came out at 0.213%.

`COC(=O)C1(C)COP(=O)(NCc2ccccc2)OC1` (centres undefined): the OD600 change worked out at 16.8% and the RFP signal change is 0.818%.

As to `CC(=O)Nc1ccc([As](=O)(O)O)c(O)c1`, the OD600 change worked out at 8.88% and the RFP signal change is 1.65%.

`COc1ccc2c(c1O)-c1c(O)c(OC)cc3c1[C@H](C2)[N+](C)(C)CC3.O=[N+]([O-])c1cc([N+](=O)[O-])c([O-])c([N+](=O)[O-])c1[O-]`: the OD600 change was 9.77% and the RFP signal change is -2.5%.

Consider `O=[N+]([O-])c1cc([N+](=O)[O-])c(Nc2ccc(Cl)cc2)c([N+](=O)[O-])c1`, for which the OD600 change is -73.9% and the RFP signal change is -17.9%.

`CCOc1ccc(C2=NCC(CBr)S2)cc1` (centres undefined): the OD600 change was found to be 8.69% and the RFP signal change was -3.39%.

`CC(C)(C)C(=O)NC(Sc1ccccc1)C(Cl)(Cl)Cl` (centres undefined): the OD600 change is -28.9% and the RFP signal change is -2.91%.

Turning to `CC(C)c1ccc(OP(C)(=O)Nc2ccc(SC(F)(F)F)cc2)cc1` (centres undefined), the OD600 change is -13.9% and the RFP signal change was found to be 8.28%.

In the case of `CCc1cc(O)c([N+](=O)[O-])c(C)c1[N+](=O)[O-]`, the OD600 change was -45.7% and the RFP signal change is -3.1%.

For `CP(=O)(Nc1ccccc1F)Oc1ccccc1` (centres undefined), the OD600 change was found to be 9.21% and the RFP signal change is -8.39%.

On to `CP(=O)(Nc1ccc(SC(F)(F)F)cc1)Oc1ccc(F)cc1` (centres undefined), for which the OD600 change is -38.1% and the RFP signal change was -7.01%.

As for `CCOP(=O)(CC)OCC`, the OD600 change was determined as 7.27% and the RFP signal change came out at 0.194%.

As to `O=[As](O)(c1ccccc1)c1ccc(O)cc1`, the OD600 change is 10.8% and the RFP signal change was 5.2%.

Regarding `Cc1cc(-c2cccc3ccccc23)c(C)cn1.O=[N+]([O-])c1cc([N+](=O)[O-])c(O)c([N+](=O)[O-])c1`, the OD600 change was -21.1% and the RFP signal change is -4.97%.

`O=[N+]([O-])c1cc([N+](=O)[O-])c(NCC2CCS(=O)(=O)C2)c([N+](=O)[O-])c1` (centres undefined): the OD600 change was determined as 24.4% and the RFP signal change stood at 4.44%.

On to `CC(=O)NC(SC(=S)N(C)C)C(Cl)(Cl)Cl` (centres undefined), for which the OD600 change came to 14.9% and the RFP signal change is -1.39%.

Turning to `O=[N+]([O-])c1ccc(OP2(=O)COCCO2)cc1` (centres undefined), the OD600 change worked out at 11.8% and the RFP signal change was -0.1%.

Consider `O=[N+]([O-])c1ncn(CCn2cnc([N+](=O)[O-])n2)n1`, for which the OD600 change turned out to be 3.63% and the RFP signal change was -0.755%.

Consider `Cc1c(C(c2ccc3c(c2)OCO3)c2c(C)n(C)n(-c3ccccc3)c2=O)c(=O)n(-c2ccccc2)n1C.O=[N+]([O-])c1cc([N+](=O)[O-])c(O)c([N+](=O)[O-])c1`, for which the OD600 change came to 10% and the RFP signal change is -0.37%.

For the compound `C/C(N)=N\P(=O)(OCc1ccccc1)OCc1ccccc1`, the OD600 change was found to be 17.4% and the RFP signal change was -2.57%.

Regarding `C(Cc1nn[nH]n1)Cc1nn[nH]n1`, the OD600 change turned out to be 1.25% and the RFP signal change is -2.13%.

Consider `Nc1ccc([As](=O)(O)c2ccc([N+](=O)[O-])cc2)cc1`, for which the OD600 change is -2.66% and the RFP signal change was -4%.

`O=P(Nc1ccccn1)(c1ccc(Br)cc1)c1ccc(Br)cc1`: the OD600 change was determined as 5.38% and the RFP signal change is -1.07%.

On to `CN(C)C1(CNC(=O)c2ccc(Cl)c(S(N)(=O)=O)c2)CCCCC1`, for which the OD600 change was 0.621% and the RFP signal change is -2.45%.

In the case of `COc1ccc(N)c([N+](=O)[O-])c1[N+](=O)[O-]`, the OD600 change is -24.3% and the RFP signal change is -3.55%.

In the case of `COc1ccc(NP(C)(=O)Oc2ccccc2OC)cc1` (centres undefined), the OD600 change was determined as 3.6% and the RFP signal change is -1.9%.
